Results as given in the supplement of paper PMC10849652.
The other results are listed elsewhere or left out.

Amino acid sequences for entries named in this document (tags omitted). A change or cut given only in a name is not applied to a line headed by its entry.
UniProt P06865: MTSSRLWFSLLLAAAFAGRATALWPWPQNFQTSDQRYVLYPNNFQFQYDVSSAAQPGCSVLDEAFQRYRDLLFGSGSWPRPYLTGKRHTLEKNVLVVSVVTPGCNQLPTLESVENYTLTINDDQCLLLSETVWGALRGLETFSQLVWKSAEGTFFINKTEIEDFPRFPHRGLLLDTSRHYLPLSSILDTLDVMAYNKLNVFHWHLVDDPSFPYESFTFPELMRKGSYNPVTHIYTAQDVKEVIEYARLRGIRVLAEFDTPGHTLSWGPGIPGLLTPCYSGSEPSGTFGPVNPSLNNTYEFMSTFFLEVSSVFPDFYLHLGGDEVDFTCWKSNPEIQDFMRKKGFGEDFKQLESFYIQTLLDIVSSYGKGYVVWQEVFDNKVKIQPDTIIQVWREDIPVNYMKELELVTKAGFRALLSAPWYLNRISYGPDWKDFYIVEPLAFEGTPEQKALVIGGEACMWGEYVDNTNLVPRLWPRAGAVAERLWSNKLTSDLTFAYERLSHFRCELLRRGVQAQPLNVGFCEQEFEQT
UniProt P17096: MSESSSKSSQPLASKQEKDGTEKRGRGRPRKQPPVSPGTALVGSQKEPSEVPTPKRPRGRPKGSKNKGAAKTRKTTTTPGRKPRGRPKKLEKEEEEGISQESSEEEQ
UniProt Q15651: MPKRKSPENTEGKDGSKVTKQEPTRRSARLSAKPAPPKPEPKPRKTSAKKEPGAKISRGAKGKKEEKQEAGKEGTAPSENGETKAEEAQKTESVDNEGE
UniProt Q9UPZ3: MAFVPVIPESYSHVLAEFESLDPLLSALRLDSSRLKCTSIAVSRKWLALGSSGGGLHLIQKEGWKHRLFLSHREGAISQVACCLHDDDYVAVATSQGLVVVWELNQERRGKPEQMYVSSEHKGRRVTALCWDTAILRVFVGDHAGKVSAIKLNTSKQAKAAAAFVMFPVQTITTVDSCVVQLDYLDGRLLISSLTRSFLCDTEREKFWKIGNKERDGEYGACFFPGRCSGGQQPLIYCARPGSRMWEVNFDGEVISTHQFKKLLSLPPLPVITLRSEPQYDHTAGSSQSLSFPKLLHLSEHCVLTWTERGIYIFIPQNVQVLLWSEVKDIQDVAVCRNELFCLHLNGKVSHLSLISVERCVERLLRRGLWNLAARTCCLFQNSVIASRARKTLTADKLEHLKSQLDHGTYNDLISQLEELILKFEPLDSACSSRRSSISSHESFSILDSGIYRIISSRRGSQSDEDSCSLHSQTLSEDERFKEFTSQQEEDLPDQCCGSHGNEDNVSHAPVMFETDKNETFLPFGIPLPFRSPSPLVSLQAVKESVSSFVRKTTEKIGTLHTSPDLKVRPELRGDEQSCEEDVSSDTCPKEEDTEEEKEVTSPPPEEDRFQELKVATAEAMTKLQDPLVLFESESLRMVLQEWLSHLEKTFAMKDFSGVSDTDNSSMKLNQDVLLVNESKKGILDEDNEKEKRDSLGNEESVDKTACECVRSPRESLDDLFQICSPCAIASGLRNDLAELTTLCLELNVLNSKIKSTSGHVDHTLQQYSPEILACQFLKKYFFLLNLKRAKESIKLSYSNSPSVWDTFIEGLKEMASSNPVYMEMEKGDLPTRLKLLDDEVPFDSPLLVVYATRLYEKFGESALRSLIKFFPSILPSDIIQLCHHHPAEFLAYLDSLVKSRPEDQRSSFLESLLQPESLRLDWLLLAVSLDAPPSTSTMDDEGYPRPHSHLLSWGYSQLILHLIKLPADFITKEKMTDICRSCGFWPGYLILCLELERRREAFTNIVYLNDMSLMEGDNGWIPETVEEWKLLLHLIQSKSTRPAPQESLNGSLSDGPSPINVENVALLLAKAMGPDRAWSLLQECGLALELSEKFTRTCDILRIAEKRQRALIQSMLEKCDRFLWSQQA
UniProt P08238, whole entry, looked up: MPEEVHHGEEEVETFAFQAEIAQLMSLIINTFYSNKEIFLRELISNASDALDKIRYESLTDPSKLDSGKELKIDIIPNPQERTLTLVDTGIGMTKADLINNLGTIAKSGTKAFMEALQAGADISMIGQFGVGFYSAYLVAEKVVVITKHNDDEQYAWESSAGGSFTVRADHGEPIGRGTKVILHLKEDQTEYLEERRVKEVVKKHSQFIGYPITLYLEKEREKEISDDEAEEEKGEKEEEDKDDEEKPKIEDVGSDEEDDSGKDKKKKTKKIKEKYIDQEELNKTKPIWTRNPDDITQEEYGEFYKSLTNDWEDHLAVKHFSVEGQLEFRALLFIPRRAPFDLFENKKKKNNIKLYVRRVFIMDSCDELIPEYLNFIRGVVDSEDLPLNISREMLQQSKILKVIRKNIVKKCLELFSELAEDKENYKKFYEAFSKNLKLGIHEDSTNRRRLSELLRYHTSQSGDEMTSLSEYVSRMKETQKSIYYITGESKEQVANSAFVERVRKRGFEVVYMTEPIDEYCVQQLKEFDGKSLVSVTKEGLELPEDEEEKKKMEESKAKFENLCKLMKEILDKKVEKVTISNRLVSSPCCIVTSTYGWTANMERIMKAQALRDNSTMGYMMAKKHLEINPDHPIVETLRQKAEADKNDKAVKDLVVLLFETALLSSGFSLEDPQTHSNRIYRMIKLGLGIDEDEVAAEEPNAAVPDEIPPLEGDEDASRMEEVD
UniProt P07686: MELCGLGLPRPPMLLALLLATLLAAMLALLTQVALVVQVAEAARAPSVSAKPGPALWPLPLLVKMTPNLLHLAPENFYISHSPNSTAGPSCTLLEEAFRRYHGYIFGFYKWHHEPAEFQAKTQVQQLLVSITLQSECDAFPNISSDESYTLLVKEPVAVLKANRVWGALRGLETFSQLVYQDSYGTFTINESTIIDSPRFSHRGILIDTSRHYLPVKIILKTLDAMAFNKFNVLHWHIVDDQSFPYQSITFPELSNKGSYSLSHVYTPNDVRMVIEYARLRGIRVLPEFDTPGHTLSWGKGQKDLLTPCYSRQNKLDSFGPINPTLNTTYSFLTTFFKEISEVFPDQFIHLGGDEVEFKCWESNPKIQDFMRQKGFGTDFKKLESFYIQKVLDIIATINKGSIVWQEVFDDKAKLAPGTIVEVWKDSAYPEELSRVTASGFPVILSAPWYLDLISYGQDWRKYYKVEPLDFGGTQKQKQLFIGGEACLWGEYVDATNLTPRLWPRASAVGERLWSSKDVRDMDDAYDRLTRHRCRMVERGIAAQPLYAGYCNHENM
UniProt Q9NQG7: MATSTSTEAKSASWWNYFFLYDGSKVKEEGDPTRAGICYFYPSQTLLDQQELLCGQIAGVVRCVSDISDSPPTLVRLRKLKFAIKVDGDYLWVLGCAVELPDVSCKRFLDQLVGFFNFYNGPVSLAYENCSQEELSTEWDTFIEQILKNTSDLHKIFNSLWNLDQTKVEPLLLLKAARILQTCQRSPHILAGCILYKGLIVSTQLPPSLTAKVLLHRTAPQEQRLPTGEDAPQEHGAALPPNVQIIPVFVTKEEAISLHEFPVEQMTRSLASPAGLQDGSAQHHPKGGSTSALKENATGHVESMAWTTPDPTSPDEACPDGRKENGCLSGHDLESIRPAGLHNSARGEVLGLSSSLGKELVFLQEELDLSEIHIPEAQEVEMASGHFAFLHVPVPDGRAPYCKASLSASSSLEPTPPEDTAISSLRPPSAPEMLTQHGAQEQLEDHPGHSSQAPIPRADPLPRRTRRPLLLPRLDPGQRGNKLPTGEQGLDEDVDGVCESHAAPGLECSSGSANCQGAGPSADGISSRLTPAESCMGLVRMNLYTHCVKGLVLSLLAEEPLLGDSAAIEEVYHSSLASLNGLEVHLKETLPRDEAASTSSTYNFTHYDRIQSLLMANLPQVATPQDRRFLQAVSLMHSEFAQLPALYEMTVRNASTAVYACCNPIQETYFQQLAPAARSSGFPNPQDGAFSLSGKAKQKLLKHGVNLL
UniProt Q5GLZ8: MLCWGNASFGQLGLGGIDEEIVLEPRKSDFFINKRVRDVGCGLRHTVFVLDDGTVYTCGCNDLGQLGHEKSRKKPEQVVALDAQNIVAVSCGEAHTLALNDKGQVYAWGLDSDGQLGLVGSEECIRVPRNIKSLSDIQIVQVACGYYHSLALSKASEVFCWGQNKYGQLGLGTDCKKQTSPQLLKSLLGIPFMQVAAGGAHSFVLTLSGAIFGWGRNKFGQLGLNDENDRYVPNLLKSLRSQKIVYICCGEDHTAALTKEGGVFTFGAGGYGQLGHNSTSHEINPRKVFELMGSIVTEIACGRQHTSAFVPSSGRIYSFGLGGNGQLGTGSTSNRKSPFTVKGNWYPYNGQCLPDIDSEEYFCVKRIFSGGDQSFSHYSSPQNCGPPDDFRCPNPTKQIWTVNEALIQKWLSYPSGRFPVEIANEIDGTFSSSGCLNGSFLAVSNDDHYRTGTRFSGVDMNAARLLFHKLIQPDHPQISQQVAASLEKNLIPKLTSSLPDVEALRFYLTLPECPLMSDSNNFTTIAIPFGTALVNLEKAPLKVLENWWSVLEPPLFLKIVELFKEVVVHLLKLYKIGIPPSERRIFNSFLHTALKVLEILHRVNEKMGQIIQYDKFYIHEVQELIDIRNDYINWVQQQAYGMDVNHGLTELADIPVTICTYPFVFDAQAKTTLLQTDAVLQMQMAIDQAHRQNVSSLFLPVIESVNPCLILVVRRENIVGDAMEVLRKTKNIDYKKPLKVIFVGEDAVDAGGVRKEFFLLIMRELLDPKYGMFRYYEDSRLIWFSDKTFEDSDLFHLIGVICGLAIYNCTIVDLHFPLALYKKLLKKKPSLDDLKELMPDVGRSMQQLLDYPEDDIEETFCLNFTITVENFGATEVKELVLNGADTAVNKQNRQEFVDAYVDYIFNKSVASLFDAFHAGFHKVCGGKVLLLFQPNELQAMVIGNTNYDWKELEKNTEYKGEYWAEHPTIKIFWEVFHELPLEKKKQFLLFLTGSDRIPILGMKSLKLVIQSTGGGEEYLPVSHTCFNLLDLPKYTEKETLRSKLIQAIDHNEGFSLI
UniProt Q96ED9: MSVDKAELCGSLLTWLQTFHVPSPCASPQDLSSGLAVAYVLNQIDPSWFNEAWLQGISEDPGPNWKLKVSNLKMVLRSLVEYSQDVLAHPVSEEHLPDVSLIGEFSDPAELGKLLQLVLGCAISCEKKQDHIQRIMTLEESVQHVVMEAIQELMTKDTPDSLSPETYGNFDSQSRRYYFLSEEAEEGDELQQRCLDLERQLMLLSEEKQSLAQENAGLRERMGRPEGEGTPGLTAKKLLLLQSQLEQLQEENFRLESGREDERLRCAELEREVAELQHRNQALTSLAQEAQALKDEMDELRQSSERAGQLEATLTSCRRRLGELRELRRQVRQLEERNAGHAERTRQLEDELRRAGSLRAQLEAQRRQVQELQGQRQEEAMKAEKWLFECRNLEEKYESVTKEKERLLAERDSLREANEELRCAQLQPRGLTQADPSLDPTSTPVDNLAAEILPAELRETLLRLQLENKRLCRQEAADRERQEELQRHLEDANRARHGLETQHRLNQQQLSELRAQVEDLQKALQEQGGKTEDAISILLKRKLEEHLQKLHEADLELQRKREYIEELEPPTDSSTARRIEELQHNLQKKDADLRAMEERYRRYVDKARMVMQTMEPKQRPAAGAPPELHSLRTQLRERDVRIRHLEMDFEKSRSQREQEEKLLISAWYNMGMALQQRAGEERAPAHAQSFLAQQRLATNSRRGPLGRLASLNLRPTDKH
UniProt O15347: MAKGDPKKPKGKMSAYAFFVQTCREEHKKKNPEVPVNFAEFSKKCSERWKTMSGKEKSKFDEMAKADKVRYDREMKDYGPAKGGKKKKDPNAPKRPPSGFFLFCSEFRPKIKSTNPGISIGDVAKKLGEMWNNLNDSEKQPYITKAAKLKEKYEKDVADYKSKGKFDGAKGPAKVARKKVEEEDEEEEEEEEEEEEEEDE
UniProt Q8IWL3: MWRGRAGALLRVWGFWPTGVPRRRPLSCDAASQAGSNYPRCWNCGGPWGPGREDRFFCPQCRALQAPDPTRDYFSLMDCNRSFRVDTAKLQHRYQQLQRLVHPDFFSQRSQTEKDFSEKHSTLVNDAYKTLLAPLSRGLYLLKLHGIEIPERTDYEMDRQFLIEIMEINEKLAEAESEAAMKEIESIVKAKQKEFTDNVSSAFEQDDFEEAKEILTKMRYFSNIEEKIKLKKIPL
UniProt Q8WVB3: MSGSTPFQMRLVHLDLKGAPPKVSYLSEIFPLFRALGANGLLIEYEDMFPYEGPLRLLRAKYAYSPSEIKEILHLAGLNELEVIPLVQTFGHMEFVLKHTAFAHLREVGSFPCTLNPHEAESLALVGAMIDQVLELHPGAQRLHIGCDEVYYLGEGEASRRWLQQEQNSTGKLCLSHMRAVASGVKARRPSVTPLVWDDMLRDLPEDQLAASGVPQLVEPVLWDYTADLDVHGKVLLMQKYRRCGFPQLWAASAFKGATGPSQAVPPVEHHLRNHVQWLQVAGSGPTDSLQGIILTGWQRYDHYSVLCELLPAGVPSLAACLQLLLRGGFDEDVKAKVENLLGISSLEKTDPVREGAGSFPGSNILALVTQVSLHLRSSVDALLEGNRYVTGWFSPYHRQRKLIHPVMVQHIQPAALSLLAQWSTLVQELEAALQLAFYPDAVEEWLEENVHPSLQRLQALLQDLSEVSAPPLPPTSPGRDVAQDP

Key:
Experiment in all cases: log2 fold change, soluble protein after heating vs DMSO (PISA); higher = thermal stabilisation; K562 lysate, 10 uM; active = over 0.2 and 3.5 SD of the protein, either way, in both replicates (recomputed)
lapatinib = compound: CS(=O)(=O)CCNCc1ccc(-c2ccc3ncnc(Nc4ccc(OCc5cccc(F)c5)c(Cl)c4)c3c2)o1 [lapatinib]
Procedure, shortened: (§1)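 Values give the log-two fold change in thermal stability against solvent controls, from duplicates. Crude K562 extract at 1 mg/mL protein, made by dounce homogenisation in PBS pH 7.4 with 1 mM MgCl2, was treated with 10 μM compound for 30 min. After 3 min heating across 48°C-58°C, aliquots were pooled, adjusted to 0.5% NP-40 at 4°C and centrifuged at 21,000xg for 90 min. The supernatant was measured by TMTpro 16plex LC-MS/MS with channel sums equalised.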

pictilisib = compound: CS(=O)(=O)N1CCN(Cc2cc3nc(-c4cccc5[nH]ncc45)nc(N4CCOCC4)c3s2)CC1 [pictilisib]
Procedure, shortened: as §1

crizotinib = compound: C[C@@H](Oc1cc(-c2cnn(C3CCNCC3)c2)cnc1N)c1c(Cl)ccc(F)c1Cl [crizotinib]
Procedure, shortened: as §1

[1] = compound: C[C@H](C1=CC=C(C=C1)C(=O)NC2=C3C=CNC3=NC=C2)N
Procedure, shortened: as §1

duvelisib = compound: C[C@H](Nc1ncnc2nc[nH]c12)c1cc2cccc(Cl)c2c(=O)n1-c1ccccc1 [duvelisib]
Procedure, shortened: as §1

gandotinib = compound: Cc1cc(Nc2cc(CN3CCOCC3)c3nc(C)c(Cc4ccc(Cl)cc4F)n3n2)n[nH]1 [gandotinib]
Procedure, shortened: as §1

tozasertib = compound: Cc1cc(Nc2cc(N3CCN(C)CC3)nc(Sc3ccc(NC(=O)C4CC4)cc3)n2)n[nH]1 [tozasertib]
Procedure, shortened: as §1

doramapimod = compound: Cc1ccc(-n2nc(C(C)(C)C)cc2NC(=O)Nc2ccc(OCCN3CCOCC3)c3ccccc23)cc1 [doramapimod]
Procedure, shortened: as §1

bafetinib = compound: Cc1ccc(NC(=O)c2ccc(CN3CC[C@H](N(C)C)C3)c(C(F)(F)F)c2)cc1Nc1nccc(-c2cncnc2)n1 [bafetinib]
Procedure, shortened: as §1

[2] = compound: Cc1cccc(CC(=O)N2CCc3c2ccc(-c2cn(C)c4ncnc(N)c24)c3F)n1
Procedure, shortened: as §1

nilotinib = compound: Cc1cn(-c2cc(NC(=O)c3ccc(C)c(Nc4nccc(-c5cccnc5)n4)c3)cc(C(F)(F)F)c2)cn1 [nilotinib]
Procedure, shortened: as §1

[3] = compound: Cc1nc(Nc2n[nH]c3c2CN(C(=O)N[C@H](CN(C)C)c2ccccc2)C3(C)C)c2sccc2n1
Procedure, shortened: as §1

dasatinib = compound: Cc1nc(Nc2ncc(C(=O)Nc3c(C)cccc3Cl)s2)cc(N2CCN(CCO)CC2)n1 [dasatinib]
Procedure, shortened: as §1

[4] = compound: Cc1ncc(-c2ccnc(Nc3ccc(S(C)(=O)=O)cc3)n2)n1C(C)C
Procedure, shortened: as §1

[5] = compound: Cn1cc(-c2ccc3c(c2)CCN3C(=O)Cc2cccc(C(F)(F)F)c2)c2c(N)ncnc21
Procedure, shortened: as §1

quisinostat = compound: Cn1cc(CNCC2CCN(c3ncc(C(=O)NO)cn3)CC2)c2ccccc21 [quisinostat]
Procedure, shortened: as §1

tipifarnib = compound: Cn1cncc1[C@@](N)(c1ccc(Cl)cc1)c1ccc2c(c1)c(-c1cccc(Cl)c1)cc(=O)n2C [tipifarnib]
Procedure, shortened: as §1

[6] = compound: NC(=O)Nc1cc(-c2cccc(F)c2)sc1C(=O)N[C@H]1CCCNC1
Procedure, shortened: as §1

[7] = compound: NC(=O)c1cnc(N[C@@H]2CCCC[C@@H]2N)nc1Nc1cccc(-n2nccn2)c1
Procedure, shortened: as §1

[8] = compound: NC1(c2ccc(-c3nc4ccn5c(=O)[nH]nc5c4cc3-c3ccccc3)cc2)CCC1
Procedure, shortened: as §1

Measured: log2 fold change

HEXA (UniProt P06865)
inactive: lapatinib -0.008 | pictilisib -0.032 | crizotinib 0.01 | [1] -0.034 | duvelisib -0.03 | gandotinib 0.012 | tozasertib 0.002 | doramapimod -0.006 | bafetinib 0.011 | [2] -0.001 | nilotinib 0.028 | [3] -0.035 | dasatinib -0.022 | [4] -0.014 | [5] 0.008 | quisinostat 0.005 | tipifarnib 0.011 | [6] -0.031 | [7] -0.008 | [8] 0.004

HMGA1 (UniProt P17096)
inactive: lapatinib -0.023 | pictilisib 0.03 | crizotinib 0.007 | [1] -0.27 | duvelisib 0.058 | gandotinib 0.069 | tozasertib -0.062 | doramapimod -0.02 | bafetinib 0.043 | [2] 0.036 | nilotinib 0.035 | [3] 0.039 | dasatinib -0.012 | [4] 0.014 | [5] -0.08 | quisinostat -0.018 | tipifarnib 0.032 | [6] -0.004 | [7] -0.025 | [8] -0.059

HMGN3 (UniProt Q15651)
inactive: lapatinib 0.082 | pictilisib 0.002 | crizotinib 0.014 | [1] -0.016 | duvelisib 0.051 | gandotinib 0.08 | doramapimod -0.147 | bafetinib 0.026 | [2] -0.047 | nilotinib -0.254 | [3] 0.129 | dasatinib 0.122 | [4] 0.046 | [5] -0.101 | quisinostat -0.064 | tipifarnib 0.102 | [6] -0.035 | [7] -0.061 | [8] -0.018

HPS5 (UniProt Q9UPZ3)
inactive: lapatinib -0.183 | pictilisib -0.05 | crizotinib -0.065 | [1] -0.377 | duvelisib 0.005 | gandotinib 0.295 | doramapimod 0.097 | bafetinib -0.025 | [2] 0.473 | nilotinib -0.156 | [3] 0.262 | dasatinib -0.032 | [4] -0.214 | [5] -0.076 | quisinostat -0.035 | tipifarnib 0.054 | [6] 0.046 | [7] -0.03 | [8] -0.043

HSP90AB1 (UniProt P08238)
inactive: lapatinib 0.013 | pictilisib -0.008 | crizotinib 0.043 | [1] 0.097 | duvelisib -0.021 | gandotinib -0.072 | tozasertib -0.016 | doramapimod -0.034 | bafetinib 0.031 | [2] -0.064 | nilotinib 0 | [3] 0.003 | dasatinib 0.01 | [4] 0.005 | [5] -0.002 | quisinostat 0.083 | tipifarnib 0.012 | [6] -0.007 | [7] -0.014 | [8] 0.008

Quoted from the listing (3 entries):
HEXA (UniProt P06865)
inactive: lapatinib -0.008 | pictilisib -0.032 | crizotinib 0.01 | [1] -0.034 | duvelisib -0.03 | gandotinib 0.012 | tozasertib 0.002 | doramapimod -0.006 | bafetinib 0.011 | [2] -0.001 | nilotinib 0.028 | [3] -0.035 | dasatinib -0.022 | [4] -0.014 | [5] 0.008 | quisinostat 0.005 | tipifarnib 0.011 | [6] -0.031 | [7] -0.008 | [8] 0.004

HMGA1 (UniProt P17096)
inactive: lapatinib -0.023 | pictilisib 0.03 | crizotinib 0.007 | [1] -0.27 | duvelisib 0.058 | gandotinib 0.069 | tozasertib -0.062 | doramapimod -0.02 | bafetinib 0.043 | [2] 0.036 | nilotinib 0.035 | [3] 0.039 | dasatinib -0.012 | [4] 0.014 | [5] -0.08 | quisinostat -0.018 | tipifarnib 0.032 | [6] -0.004 | [7] -0.025 | [8] -0.059

HMGN3 (UniProt Q15651)
inactive: lapatinib 0.082 | pictilisib 0.002 | crizotinib 0.014 | [1] -0.016 | duvelisib 0.051 | gandotinib 0.08 | doramapimod -0.147 | bafetinib 0.026 | [2] -0.047 | nilotinib -0.254 | [3] 0.129 | dasatinib 0.122 | [4] 0.046 | [5] -0.101 | quisinostat -0.064 | tipifarnib 0.102 | [6] -0.035 | [7] -0.061 | [8] -0.018

Continued:

HEXB (UniProt P07686)
inactive: lapatinib -0.007 | pictilisib -0.02 | crizotinib 0.011 | [1] 0.037 | duvelisib 0.014 | gandotinib -0.039 | tozasertib 0.01 | doramapimod 0.017 | bafetinib 0.001 | [2] -0.081 | nilotinib -0.013 | [3] -0.017 | dasatinib 0.009 | [4] 0.015 | [5] 0.022 | quisinostat 0.076 | tipifarnib 0.035 | [6] -0.004 | [7] -0.005 | [8] -0.003

HPS4 isoform 4 (UniProt Q9NQG7)
inactive: lapatinib -0.059 | pictilisib -0.21 | crizotinib -0.114 | duvelisib 0.01 | tozasertib 0.028 | doramapimod -0.018 | bafetinib 0.143 | dasatinib 0.021 | [5] -0.018 | quisinostat 0.012 | [6] -0.051 | [7] 0.153 | [8] -0.042

HERC4 (UniProt Q5GLZ8)
inactive: lapatinib -0.003 | pictilisib 0.004 | crizotinib -0.031 | [1] -0.107 | duvelisib -0.002 | gandotinib 0.017 | tozasertib 0.02 | doramapimod 0.032 | bafetinib -0.029 | [2] 0.048 | nilotinib 0.003 | [3] -0.02 | dasatinib -0.011 | [4] 0.008 | [5] -0.015 | quisinostat -0.06 | tipifarnib 0.019 | [6] 0.004 | [7] -0.007 | [8] -0.048

HOOK2 (UniProt Q96ED9)
inactive: lapatinib 0.043 | pictilisib 0.055 | [1] 0.138 | duvelisib -0.003 | gandotinib 0.004 | bafetinib -0.158 | [2] 0.123 | nilotinib 0.081 | [3] 0.003 | dasatinib -0.057 | [4] 0.066 | [5] -0.039 | tipifarnib -0.041 | [7] 0.021 | [8] -0.16

HMGN5 (UniProt Q5JSK9)
inactive: lapatinib -0.04 | pictilisib 0.017 | tozasertib 0.074 | bafetinib -0.04 | nilotinib -0.074 | [3] 0.062 | [4] -0.036 | tipifarnib 0.076 | [7] -0.035

HMGB3 (UniProt O15347)
inactive: lapatinib 0.054 | pictilisib 0.085 | crizotinib 0.014 | [1] 0.008 | duvelisib -0.002 | gandotinib -0.034 | tozasertib -0.018 | doramapimod -0.045 | bafetinib -0.011 | [2] -0.103 | nilotinib 0.016 | [3] 0.025 | dasatinib 0.052 | [4] 0.003 | [5] -0.052 | quisinostat 0.043 | tipifarnib 0.025 | [6] -0.023 | [7] -0.038 | [8] -0.007

HNRNPK isoform 3 (UniProt P61978)
inactive: lapatinib -0.098 | pictilisib 0.006 | crizotinib 0.027 | [1] -0.014 | duvelisib 0.066 | gandotinib 0 | tozasertib -0.038 | doramapimod 0.019 | bafetinib -0.027 | [2] -0.006 | nilotinib -0.018 | [3] -0.045 | dasatinib -0.056 | [4] 0.064 | [5] -0.071 | quisinostat -0.029 | tipifarnib 0.038 | [6] 0.057 | [7] 0.017 | [8] -0.063

HSCB (UniProt Q8IWL3)
inactive: lapatinib 0.011 | pictilisib -0.051 | crizotinib 0.015 | [1] -0.026 | duvelisib -0.007 | gandotinib 0.09 | tozasertib 0.136 | doramapimod -0.045 | bafetinib -0.117 | [2] 0.033 | dasatinib -0.009 | [5] -0.016 | quisinostat 0.093 | [6] 0.037 | [7] 0.035 | [8] 0.009

HEXD isoform 2 (UniProt Q8WVB3)
inactive: lapatinib -0.026 | pictilisib -0.025 | [1] -0.142 | gandotinib 0.061 | tozasertib -0.124 | bafetinib -0.093 | [2] -0.018 | [7] 0.04 | [8] -0.002
